Reference: patent US9018440B2, “Fluorescent mouse model” (Stowers Institute for Medical Research, priority 2006, dated 2015)
For at least one compound, name, drawing or mass did not settle the structure.

What was measured:
[1] = system: G-protein coupled muscarinic acetylcholine receptors; experiment: Acetylcholine challenge of HEK 293 cells co-transfected with TetO-G-CaMP2 and CMV-VP22-tTA, G-CaMP2 fluorescence; assay type: cell-based, human; conditions: 10 μM acetylcholine; subset of cells; FIG. 1B
Description: Cells co-transfected with the two plasmids show fluorescence, while cells with only one of the plasmids, or neither, are not fluorescent (Control, FIG. 1A). The addition of 10 μM acetylcholine (ACH) induces a subpopulation of cells to respond with increases in fluorescence (FIG. 1B). Acetylcholine activates G-protein coupled muscarinic acetylcholine receptors and mobilizes intracellular calcium. Arrows point to three of the responsive cells (a, b, and c of both FIGS. 1A and 1B).
(AFU: artificial fluorescence unit).
Human embryonic kidney cells (HEK 293) were co-transfected with TetO-G-CaMP2 and a construct containing a tetracycline transactivator protein under the control of a ubiquitous promoter (CMV-VP22-tTA). […] The change in fluorescence indicated proper function of the G-CaMP2 sensor combined with the tetracycline inducible system.

[2] = system: G-protein coupled muscarinic acetylcholine receptors; experiment: Acetylcholine treatment of HEK 293 cells transfected with pN1-G-CaMP2, G-CaMP2 fluorescence; assay type: cell-based, human; conditions: 10 μM acetylcholine; HEK 293 pN1-G-CaMP2; 37° C. 48 hours

CC(=O)OCC[N+](C)(C)C [acetylcholine]
fluorescence response of the cell population [1]: robust increase in fluorescence
fluorescence response of cells expressing G-CaMP2 [2]: increase in fluorescence
